Experimental data from paper PMC8967222.
No constants are given. Whether binding was seen depends on the method and setting. In cells and extracts the contact can be indirect. A yes stands for co-enrichment or nearness to the bait. Other partners may have been found.

The chains behind the UniProt entries cited, without tags or fusion partners.
UniProt P06537: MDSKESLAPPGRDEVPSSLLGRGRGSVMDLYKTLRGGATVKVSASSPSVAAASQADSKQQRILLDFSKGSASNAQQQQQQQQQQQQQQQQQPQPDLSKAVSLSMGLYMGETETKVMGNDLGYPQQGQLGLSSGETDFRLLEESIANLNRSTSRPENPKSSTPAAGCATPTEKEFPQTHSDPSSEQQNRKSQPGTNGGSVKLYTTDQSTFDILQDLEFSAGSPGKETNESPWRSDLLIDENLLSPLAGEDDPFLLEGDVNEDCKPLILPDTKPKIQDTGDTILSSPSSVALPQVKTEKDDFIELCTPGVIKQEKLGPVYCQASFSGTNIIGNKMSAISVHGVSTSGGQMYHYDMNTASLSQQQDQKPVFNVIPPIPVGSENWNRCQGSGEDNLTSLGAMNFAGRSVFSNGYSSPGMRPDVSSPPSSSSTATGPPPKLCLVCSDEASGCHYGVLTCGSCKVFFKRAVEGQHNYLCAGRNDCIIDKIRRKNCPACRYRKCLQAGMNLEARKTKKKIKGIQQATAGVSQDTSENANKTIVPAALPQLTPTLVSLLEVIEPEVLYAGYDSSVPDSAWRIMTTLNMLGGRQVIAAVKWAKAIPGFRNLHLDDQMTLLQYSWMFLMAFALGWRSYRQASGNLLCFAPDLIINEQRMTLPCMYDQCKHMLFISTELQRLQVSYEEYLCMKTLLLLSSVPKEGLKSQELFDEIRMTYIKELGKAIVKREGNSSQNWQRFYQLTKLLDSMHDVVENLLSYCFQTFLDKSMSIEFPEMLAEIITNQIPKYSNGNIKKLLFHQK
UniProt Q61686: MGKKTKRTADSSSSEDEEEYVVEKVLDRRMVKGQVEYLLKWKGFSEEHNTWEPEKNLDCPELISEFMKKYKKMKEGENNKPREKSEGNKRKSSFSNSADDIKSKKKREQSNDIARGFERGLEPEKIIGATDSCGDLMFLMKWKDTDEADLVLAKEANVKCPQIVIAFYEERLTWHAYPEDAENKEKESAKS
UniProt P23198: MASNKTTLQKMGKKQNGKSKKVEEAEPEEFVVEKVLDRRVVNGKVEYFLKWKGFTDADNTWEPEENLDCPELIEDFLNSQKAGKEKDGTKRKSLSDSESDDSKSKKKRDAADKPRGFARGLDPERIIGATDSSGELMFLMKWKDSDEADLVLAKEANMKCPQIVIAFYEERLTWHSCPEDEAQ
UniProt O88286: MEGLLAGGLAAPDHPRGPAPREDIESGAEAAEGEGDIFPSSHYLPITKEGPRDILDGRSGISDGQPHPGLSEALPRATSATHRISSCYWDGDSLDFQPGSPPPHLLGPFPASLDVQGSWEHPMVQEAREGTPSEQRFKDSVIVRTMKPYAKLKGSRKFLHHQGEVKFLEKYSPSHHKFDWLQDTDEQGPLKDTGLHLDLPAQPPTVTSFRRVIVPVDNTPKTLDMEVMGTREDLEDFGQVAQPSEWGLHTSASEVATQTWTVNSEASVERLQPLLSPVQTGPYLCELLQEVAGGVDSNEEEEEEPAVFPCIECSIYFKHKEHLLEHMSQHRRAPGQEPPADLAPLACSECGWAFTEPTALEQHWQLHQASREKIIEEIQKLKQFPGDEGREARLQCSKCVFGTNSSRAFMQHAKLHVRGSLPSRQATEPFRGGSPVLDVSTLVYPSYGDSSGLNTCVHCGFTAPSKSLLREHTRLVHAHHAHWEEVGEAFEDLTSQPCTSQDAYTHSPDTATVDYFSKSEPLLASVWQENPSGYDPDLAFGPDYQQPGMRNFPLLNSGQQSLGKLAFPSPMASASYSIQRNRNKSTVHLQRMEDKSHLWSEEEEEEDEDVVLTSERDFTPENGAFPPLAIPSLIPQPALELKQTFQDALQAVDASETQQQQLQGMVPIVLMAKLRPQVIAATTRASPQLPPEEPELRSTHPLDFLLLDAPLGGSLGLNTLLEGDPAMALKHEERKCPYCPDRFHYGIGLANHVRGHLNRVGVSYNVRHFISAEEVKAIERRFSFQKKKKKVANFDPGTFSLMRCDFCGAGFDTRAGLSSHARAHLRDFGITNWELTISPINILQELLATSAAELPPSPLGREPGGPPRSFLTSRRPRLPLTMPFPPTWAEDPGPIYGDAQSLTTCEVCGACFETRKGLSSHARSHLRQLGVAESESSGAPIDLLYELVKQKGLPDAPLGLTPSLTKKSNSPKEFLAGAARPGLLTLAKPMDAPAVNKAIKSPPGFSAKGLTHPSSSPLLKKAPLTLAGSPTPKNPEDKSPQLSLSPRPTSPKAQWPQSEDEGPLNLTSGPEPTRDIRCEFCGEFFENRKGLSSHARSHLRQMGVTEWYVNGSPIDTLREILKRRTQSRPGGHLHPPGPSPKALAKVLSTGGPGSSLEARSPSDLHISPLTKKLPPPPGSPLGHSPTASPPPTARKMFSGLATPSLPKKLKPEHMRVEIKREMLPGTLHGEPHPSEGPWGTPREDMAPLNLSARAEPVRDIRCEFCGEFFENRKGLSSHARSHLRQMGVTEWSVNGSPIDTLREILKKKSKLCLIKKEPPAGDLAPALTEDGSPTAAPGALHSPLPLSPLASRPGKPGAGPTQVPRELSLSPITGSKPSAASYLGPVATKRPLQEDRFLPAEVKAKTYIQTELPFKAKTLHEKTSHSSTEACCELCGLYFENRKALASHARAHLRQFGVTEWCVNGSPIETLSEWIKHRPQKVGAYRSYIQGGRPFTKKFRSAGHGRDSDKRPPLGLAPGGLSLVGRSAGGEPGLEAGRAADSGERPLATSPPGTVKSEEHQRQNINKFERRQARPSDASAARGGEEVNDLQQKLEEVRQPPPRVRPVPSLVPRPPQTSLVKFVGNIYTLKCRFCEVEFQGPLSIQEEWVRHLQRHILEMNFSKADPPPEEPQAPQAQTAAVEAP
UniProt Q6KCD5: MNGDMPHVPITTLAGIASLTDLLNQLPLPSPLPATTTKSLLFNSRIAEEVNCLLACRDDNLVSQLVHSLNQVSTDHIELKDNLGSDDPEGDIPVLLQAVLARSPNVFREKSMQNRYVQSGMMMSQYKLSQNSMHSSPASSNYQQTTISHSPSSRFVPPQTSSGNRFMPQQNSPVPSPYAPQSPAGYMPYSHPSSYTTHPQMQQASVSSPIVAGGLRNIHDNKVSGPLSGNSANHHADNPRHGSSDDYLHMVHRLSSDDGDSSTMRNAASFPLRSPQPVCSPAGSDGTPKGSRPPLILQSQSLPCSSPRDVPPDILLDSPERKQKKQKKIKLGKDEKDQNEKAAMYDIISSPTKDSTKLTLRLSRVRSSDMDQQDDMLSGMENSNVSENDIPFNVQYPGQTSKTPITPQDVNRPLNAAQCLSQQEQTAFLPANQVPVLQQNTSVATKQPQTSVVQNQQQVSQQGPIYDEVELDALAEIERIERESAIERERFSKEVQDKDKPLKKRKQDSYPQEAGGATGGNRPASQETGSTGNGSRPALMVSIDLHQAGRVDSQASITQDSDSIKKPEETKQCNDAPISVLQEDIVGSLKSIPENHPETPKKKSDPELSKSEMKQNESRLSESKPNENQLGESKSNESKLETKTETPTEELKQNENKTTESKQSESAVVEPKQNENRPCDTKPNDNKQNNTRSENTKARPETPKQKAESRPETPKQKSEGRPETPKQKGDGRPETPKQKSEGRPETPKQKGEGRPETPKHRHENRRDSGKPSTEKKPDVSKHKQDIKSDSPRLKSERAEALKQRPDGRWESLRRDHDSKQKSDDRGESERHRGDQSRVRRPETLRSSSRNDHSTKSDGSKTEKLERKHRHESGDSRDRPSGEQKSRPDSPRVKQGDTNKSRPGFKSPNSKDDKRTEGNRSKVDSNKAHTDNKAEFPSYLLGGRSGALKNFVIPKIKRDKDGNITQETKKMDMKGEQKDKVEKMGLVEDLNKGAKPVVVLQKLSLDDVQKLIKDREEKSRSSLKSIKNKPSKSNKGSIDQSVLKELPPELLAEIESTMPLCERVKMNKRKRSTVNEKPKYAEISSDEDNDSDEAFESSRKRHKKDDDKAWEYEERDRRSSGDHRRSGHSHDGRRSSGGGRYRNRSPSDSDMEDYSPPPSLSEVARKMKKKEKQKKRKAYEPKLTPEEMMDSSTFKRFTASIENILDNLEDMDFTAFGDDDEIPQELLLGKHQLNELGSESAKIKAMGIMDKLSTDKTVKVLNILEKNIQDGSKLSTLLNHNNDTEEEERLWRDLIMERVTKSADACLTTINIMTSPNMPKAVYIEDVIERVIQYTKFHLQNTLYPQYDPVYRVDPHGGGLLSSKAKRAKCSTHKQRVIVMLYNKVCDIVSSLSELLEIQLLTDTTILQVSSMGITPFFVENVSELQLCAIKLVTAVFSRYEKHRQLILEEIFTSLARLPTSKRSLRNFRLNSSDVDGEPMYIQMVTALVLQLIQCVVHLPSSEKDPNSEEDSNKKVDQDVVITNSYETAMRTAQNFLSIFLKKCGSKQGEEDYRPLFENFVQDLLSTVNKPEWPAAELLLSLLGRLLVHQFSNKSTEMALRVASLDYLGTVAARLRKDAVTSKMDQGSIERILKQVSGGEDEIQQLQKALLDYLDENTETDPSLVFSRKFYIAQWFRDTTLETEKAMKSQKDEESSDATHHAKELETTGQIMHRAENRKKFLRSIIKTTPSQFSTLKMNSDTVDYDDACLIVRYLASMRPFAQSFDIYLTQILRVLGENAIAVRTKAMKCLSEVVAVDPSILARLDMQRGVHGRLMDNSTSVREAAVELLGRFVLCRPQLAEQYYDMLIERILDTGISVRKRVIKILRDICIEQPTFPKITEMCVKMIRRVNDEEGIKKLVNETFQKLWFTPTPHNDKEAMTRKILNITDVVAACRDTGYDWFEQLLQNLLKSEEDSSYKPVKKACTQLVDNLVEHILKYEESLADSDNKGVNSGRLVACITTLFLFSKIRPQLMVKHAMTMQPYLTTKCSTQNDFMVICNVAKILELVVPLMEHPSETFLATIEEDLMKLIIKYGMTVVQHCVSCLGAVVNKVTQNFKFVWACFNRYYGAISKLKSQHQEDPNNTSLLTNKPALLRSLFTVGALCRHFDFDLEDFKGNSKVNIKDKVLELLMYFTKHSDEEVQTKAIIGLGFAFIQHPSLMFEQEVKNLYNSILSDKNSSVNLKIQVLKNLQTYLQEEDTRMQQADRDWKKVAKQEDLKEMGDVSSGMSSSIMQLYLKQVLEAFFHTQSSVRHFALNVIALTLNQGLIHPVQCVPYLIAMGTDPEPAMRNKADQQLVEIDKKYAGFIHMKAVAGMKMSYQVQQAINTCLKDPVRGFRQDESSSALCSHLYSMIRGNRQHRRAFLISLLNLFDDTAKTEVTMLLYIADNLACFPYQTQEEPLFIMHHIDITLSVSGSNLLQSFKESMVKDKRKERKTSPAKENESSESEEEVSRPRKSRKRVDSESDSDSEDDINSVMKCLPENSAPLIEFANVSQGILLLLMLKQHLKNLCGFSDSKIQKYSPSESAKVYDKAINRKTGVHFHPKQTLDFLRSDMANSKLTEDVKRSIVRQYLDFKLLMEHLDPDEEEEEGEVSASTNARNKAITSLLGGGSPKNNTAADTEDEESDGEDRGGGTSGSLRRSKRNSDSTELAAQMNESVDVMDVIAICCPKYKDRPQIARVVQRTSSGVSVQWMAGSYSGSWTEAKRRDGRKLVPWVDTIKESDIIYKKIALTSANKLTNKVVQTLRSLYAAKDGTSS
UniProt Q3U9G9: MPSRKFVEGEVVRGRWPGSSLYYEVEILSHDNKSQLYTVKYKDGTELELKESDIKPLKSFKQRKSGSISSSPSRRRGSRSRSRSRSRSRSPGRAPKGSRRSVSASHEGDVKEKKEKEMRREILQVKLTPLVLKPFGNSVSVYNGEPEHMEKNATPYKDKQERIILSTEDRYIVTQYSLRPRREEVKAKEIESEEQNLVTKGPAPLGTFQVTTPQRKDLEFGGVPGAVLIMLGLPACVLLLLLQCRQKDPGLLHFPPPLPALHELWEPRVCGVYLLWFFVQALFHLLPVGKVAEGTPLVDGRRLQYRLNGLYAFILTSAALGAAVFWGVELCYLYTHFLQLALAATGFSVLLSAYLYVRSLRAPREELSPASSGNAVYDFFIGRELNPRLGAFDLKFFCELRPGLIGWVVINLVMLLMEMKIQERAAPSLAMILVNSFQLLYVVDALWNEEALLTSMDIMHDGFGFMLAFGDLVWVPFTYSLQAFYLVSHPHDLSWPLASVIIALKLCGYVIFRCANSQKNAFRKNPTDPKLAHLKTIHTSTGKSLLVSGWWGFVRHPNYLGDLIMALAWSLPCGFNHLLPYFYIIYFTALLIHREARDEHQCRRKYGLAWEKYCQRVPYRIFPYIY

B1: SMC1a (structural maintenance of chromosomes 1a) (protein, UniProt Q9CU62 1-1233)
chain: MGFLKLIEIENFKSYKGRQIIGPFQRFTAIIGPNGSGKSNLMDAISFVLGEKTSNLRVKTLRDLIHGAPVGKPAANRAFVSMVYSEEGAEDRTFARVIVGGSSEYKINNKVVQLHEYSEELEKLGILIKARNFLVFQGAVESIAMKNPKERTALFEEISRSGELAQEYDKRKKEMVKAEEDTQFNYHRKKNIAAERKEAKQEKEEADRYQRLKDEVVRAQVQLQLFKLYHNEVEIEKLNKELASKNKEIEKDKKRMDKVEDELKEKKKELGKMMREQQQIEKEIKEKDSELNQKRPQYIKAKENTSHKIKKLEAAKKSLQNAQKHYKKRKGDMDELEKEMLSVEKARQEFEERMEEESQSQGRDLTLEENQVKKYHRLKEEASKRAATLAQELEKFNRDQKADQDRLDLEERKKVETEAKIKQKLREIEENQKRIEKLEEYITTSKQSLEEQKKLEGELTEEVEMAKRRIDEINKELNQVMEQLGDARIDRQESSRQQRKAEIMESIKRLYPGSVYGRLIDLCQPTQKKYQIAVTKVLGKNMDAIIVDSEKTGRDCIQYIKEQRGEPETFLPLDYLEVKPTDEKLRELKGAKLVIDVIRYEPPHIKKALQYACGNALVCDNVEDARRIAFGGHQRHKTVALDGTLFQKSGVISGGASDLKAKARRWDEKAVDKLKEKKERLTEELKEQMKAKRKEAELRQVQSQAHGLQMRLKYSQSDLEQTKTRHLALNLQEKSKLESELANFGPRINDIKRIIQSREREMKDLKEKMNQVEDEVFEEFCREIGVRNIREFEEEKVKRQNEIAKKRLEFENQKTRLGIQLDFEKNQLKEDQDKVHMWEQTVKKDENEIEKLKKEEQRHMKIIDETMAQLQDLKNQHLAKKSEVNDKNHEMEEIRKKLGGANKEMTHLQKEVTAIETKLEQKRSDRHNLLQACKMQDIKLPLSKGTMDDISQEEGSSQGEESVSGSQRTSSIYAREALIEIDYGDLCEDLKDAQAEEEIKQEMNTLQQKLNEQQSVLQRIAAPNMKAMEKLESVRDKFQETSDEFEAARKRAKKAKQAFEQIKKERFDRFNACFESVATNIDEIYKALSRNSSAQAFLGPENPEEPYLDGINYNCVAPGKRFRPMDNLSGGEKTVAALALLFAIHSYKPAPFFVLDEIDAALDNTNIGKVANYIKEQSTCNFQAIVISLKEEFYTKAESLIGVYPEQGDCVISKVLTFDLTKYPDANPNPNEQ

These molecules were tested against glucocorticoid (GC) receptor (GR) (mouse (endogenous in 3134 mammary carcinoma cells)) (UniProt P06537) (assay: affinity purification with mass spectrometry; ChIP-SICAP: cells treated with hormone or EtOH for 1 hour, fixed 13 min with 1% paraformaldehyde, chromatin sonicated to 500 bp, GR antibody beads overnight at 4°C, DNA tagged with ddUTP-biotin, streptavidin capture, label-free DIA mass spectrometry).

binding, binds:
HP1-alpha (Cbx5) (from UniProt Q61686 1-191)
HP1-gamma (Cbx3) (from UniProt P23198 1-183)
WIZ (from UniProt O88286 1-1684)
cohesin loader NIPBL (from UniProt Q6KCD5 1-2798)
lamin B receptor (from UniProt Q3U9G9 1-626)
nuclear receptor corepressor 1 (from UniProt Q60974 1-2453)
B1
